These results are taken from PubChem BioAssay AID817 (Emory University Molecular Libraries Screening Center, 2007).

This is one part of the list. Some results for these compounds are left out of this collection, so the calls shown say nothing about other tests.

The experiment in a line: restorers of sdo1-deficient yeast growth – S. cerevisiae, bone marrow failure model, primary screen (AID 817).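 Also: z-score against mean and SD of all compound wells on the same plate.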 As to conditions: S. cerevisiae sdo1-depleted JHY4D growth rescue, OD600; measured here: growth rescue at 24 h; at 10 µM; stronger effect = higher value; pdr5 snq2 efflux-pump mutant strain.
`CN(C)c1cccc(C(=O)NCC2(N(C)C)CCCCC2)c1`: the z-score was -0.84.
Regarding `O=C(OC1CN2CCC1CC2)C(CO)(c1ccccc1)c1ccccc1` (stereo not given), the z-score is -0.27.
The molecule `CCN1CCCC(OC(=O)C2(O)c3ccccc3C=Cc3ccccc32)C1` (stereo not given) registered a z-score of 0.82.
The molecule `CN(C)C1CCCC1OC(=O)C(O)(c1ccccc1)c1ccccc1` (stereo not given) returned a z-score of -0.61.
For `CC(C)N1C(=O)CC2(CCN(CCOC(=O)C(O)(c3ccccc3)c3ccccc3)CC2)C1=O`, the z-score turned out to be 0.3.
